No constants are given. Whether binding was seen depends on the method and setting. Some entries that bind do so weakly or less than the wild type. Blank lines part the entries; values can stand above or below the binder they belong to.
What was measured:
[1] = target: T1, BTK 407 signature peptide (…) (human); test: capture of internal standard peptide, SRM-MS peak area
T1 sequence (peptide): ELGTGQFGVVK

[2] = target: T1, BTK 407 signature peptide (…) (human); test: capture of internal standard peptide, SRM-MS peak area, mAb compared with pAb
[3] = target: T2, ATP7B 1056 signature peptide (…) (human); test: immuno-SRM (peptide immunoaffinity enrichment, SRM-MS) on DBS digests
T2 sequence (peptide): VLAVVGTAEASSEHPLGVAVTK

[4] = target: T3, WASp 274 signature peptide (…) (human); test: capture of internal standard peptide, SRM-MS peak area
T3 sequence (peptide): AGISEAQLTDAETSK

[5] = target: T3, WASp 274 signature peptide (…) (human); test: capture of internal standard peptide, SRM-MS peak area, mAb compared with pAb
[6] = target: T4, CTNS 115 signature peptide (FLVIR) (human); test: immuno-SRM (peptide immunoaffinity enrichment, SRM-MS) on DBS digests
T4 sequence (peptide): FLVIR

[7] = target: T4, CTNS 115 signature peptide (FLVIR) (human); test: multiplexed immuno-SRM (peptide immunoaffinity enrichment, SRM-MS) on DBS digests
[8] = target: T5, SHPK 363 signature peptide (…) (human); test: as above
T5 sequence (peptide): DTHLTITPTVLGER

B1: Anti-BTK 407 monoclonal antibody (antibody, V domains shown)
VH: QSVKESEGGLFKPTDTLTVTCTVSGFSLSRNEISWFRQAPGNGLEWIGGIGSPGRAYYATWAKSRSTITRNTNLNTVTLKMTSLTAADTATYFCARGDIWGPGTVVTVSS
VL: QVLTQTVSPVSAAVGSTVTINCQSSQSVYNNNRLAWYQQKPGQPPKGLIYSASTLASGVSSRFKGSGSGTQFTLTISDVQCDDAATYYCLGSYDCSTADCNAFGGGTEVVVKG
- binding [1]: binds
- binding [2]: binds

B2: Anti-ATP7B 1056 monoclonal antibody (antibody, V domains shown)
VH: QSLEESGGRLVTPGGSLTVTCTVSGFSLSSYWIIWVRQAPGEGLEWIGSSGPSGSAYYTSWVKGRFTISKTSTTVDLKMTGLTTEDTATYFCARAGGSDYDWFDLWGQGTLVTVSS
VL: QVLTQTPSPVSAAVGGTVTINCQSSPSVANNNWLSWFQQKPGQRPKLLIYGASTLASGVPSRFKGSGSGTQFTLTISDVQCDDAATYYCAGGHKTAEKNPFGGGTEVVVKG
- binding [3]: binds

Results, then the binder that gave them:

- binding [4]: binds
- binding [5]: binds
B3: Anti-WASp 274 monoclonal antibody (antibody, V domains shown)
VH: QSVEESGGRLVTPGTPLTLTCTVSGFSLSTYAMTWVRQAPGKGLQWIGSFYIEGSASYANWANGRFTISKTSSTVNLKMTSPTVADTASYFCARGNPGGSSAVWGQGTLVTVSS
VL: IVLTQTPASVSAAVGGTVTISCQSSETVYKNNYLAWYQQKLGQPPKLLIYWASKLASGVPSRFKGSGSGTQFTLTISDVVCADAGTYYCAGYQSNIVDGTAFGGGTEVVVNG

- binding [6]: binds
- binding [7]: binds
B4: Anti-CTNS 115 monoclonal antibody (antibody, V domains shown)
VH: QEQLVESGGGLVQPEGSLTLTCKASGFSFSTRDGVCWVRQAPGKGLEWIACIYRGISATTSYASWAKGRFTISKTSSTTVTLQMTSLTAADTATYFCARAWDLWGPGTLVTVSS
VL: DVVMTQTPASVSEPVGGTVTIKCQASQSIGSDLSWYQQKPGQPPKRLIYKASKVETGVPSRFSGSGSGTEFTLTISDLECADASTYYCQSIDFSKSYIGGAFGGGTEVVVKG

- binding [8]: binds
B5: Anti-SHPK 363 monoclonal antibody (antibody, V domains shown)
VH: QEQIEESGGGLVKPEGSLTLTCKVSGFDFSSNYFMCWVRQAPGKGLEWIGCILVGSGRTTFASWAKGRFTISKTSSTTVTLQMTSLTAADTATYFCARAWALWGPGTLVTVSS
VL: QVLTQTPSPVSAAVGGTVTISCQASQSVYNNNDLAWYQQKPGQPPKLLIYGASTLVSGVPSRFSGSGSGAQFTLTISDLECDDAATYYCQGGYDPRNYPFGGGTEVVVKG
